# Test results taken from the supplement of paper PMC6411743.
# ± gives the standard deviation of the averaged measurements. Only a part is listed here, and it is no random draw.
# What was measured:
# Assay in all cases: NP40-soluble protein abundance relative to vehicle (solubility fold change) (ratio); higher = more soluble protein in presence of AMP-PNP
# [1] = biological target: T1, UniProt Q9NQ86-4|E9PBG3 and related entries
# T1 sequence (whole entry): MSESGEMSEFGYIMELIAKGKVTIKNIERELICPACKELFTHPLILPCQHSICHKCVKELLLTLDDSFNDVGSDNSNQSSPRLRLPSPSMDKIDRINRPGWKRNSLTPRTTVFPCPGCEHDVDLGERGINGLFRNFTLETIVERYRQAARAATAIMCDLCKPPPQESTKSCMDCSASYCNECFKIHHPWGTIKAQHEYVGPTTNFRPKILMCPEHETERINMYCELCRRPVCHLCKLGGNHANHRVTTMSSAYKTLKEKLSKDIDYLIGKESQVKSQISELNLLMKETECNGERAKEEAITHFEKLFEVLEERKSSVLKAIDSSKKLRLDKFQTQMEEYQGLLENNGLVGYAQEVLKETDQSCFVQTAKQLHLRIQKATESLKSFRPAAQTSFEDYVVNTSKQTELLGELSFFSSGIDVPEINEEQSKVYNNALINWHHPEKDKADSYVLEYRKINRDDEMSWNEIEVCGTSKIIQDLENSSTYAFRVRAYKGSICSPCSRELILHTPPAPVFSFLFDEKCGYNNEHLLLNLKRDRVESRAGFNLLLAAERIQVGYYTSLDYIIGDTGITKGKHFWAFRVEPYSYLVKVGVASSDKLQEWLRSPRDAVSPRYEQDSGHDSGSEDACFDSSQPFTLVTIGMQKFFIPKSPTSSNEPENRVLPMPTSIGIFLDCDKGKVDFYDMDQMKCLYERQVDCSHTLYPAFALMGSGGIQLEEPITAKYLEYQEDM
# Outline: (§1)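 Values are fold changes against the detergent-processed vehicle, based on vsn-normalised intensities. Jurkat crude lysate was treated at eight concentrations from 0.1 to 10 mM (10 min at room temperature, then 3 min at 37 °C), solubilised with 0.8% NP40 and benzonase, ultracentrifuged and analysed by TMT-labelled LC-MS/MS over three independent experiments.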
# [2] = biological target: T2, UniProt Q9NQC7 and related entries
# T2 sequence (whole entry): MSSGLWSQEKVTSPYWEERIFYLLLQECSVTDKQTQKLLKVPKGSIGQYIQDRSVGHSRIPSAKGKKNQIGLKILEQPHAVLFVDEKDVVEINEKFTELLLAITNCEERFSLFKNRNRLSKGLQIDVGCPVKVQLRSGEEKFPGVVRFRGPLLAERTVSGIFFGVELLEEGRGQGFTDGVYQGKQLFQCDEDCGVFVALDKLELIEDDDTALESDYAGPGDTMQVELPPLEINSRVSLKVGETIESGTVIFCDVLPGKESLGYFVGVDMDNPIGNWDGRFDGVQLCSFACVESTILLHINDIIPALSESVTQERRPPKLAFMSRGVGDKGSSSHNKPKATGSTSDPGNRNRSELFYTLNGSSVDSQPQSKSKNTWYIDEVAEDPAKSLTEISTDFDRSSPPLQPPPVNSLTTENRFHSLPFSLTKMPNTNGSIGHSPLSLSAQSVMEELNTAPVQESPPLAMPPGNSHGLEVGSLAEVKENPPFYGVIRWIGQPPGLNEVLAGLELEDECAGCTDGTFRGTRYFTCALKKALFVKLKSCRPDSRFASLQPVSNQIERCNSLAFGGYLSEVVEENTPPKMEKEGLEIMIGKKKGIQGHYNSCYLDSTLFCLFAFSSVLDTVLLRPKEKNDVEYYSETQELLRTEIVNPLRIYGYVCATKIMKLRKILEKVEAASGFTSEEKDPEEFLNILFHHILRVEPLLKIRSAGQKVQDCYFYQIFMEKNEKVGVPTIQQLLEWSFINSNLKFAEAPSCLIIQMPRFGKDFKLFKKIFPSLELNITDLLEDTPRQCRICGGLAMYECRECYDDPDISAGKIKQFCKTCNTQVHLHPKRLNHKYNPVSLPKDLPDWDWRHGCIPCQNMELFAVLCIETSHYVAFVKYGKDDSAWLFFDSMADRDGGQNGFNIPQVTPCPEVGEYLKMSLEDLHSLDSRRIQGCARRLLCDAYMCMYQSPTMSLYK
# Outline: as §1
# [3] = biological target: T3, UniProt Q9NRL3 and related entries
# T3 sequence (whole entry): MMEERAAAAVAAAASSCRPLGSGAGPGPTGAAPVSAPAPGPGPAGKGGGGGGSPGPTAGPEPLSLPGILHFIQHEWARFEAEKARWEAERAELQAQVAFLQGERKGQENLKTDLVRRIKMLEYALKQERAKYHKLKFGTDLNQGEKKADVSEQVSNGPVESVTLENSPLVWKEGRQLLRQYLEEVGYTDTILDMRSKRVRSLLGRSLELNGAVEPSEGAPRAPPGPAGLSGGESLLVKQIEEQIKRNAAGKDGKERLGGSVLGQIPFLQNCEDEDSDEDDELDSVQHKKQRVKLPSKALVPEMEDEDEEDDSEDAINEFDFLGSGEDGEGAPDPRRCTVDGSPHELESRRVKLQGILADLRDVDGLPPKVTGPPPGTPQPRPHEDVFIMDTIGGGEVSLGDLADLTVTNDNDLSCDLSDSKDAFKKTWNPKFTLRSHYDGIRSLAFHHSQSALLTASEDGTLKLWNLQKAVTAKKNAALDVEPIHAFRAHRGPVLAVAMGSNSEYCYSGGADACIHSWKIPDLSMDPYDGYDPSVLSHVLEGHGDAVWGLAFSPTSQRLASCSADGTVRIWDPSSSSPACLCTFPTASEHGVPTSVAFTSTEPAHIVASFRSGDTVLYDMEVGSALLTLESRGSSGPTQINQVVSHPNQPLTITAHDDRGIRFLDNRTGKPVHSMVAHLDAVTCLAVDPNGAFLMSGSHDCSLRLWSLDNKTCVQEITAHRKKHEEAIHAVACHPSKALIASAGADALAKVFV
# Outline: as §1
# [4] = biological target: T4, UniProt Q9NSI8 and related entries
# T4 sequence (whole entry): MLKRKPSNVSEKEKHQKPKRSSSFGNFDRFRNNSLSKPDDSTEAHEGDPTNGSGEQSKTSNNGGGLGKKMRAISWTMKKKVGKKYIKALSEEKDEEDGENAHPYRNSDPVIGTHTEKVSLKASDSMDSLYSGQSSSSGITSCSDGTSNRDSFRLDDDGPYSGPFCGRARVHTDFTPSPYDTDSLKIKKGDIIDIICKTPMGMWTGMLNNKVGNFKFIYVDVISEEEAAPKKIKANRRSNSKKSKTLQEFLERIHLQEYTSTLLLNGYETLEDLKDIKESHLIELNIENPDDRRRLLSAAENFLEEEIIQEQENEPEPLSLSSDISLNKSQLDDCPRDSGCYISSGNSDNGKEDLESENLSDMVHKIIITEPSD
# Outline: as §1
# UniProt Q9NUS5 = biological target: T5, UniProt Q9NUS5
# T5 sequence (whole entry): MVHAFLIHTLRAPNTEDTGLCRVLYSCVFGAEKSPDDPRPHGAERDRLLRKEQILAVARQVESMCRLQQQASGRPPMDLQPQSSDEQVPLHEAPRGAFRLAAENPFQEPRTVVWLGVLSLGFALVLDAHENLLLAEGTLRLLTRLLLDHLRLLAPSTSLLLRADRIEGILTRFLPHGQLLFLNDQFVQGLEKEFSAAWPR
# Outline: as §1
smiles,measurement,setting,value
Nc1ncnc2c1ncn2[C@@H]1O[C@H](COP(=O)(O)OP(=O)(O)NP(=O)(O)O)[C@@H](O)[C@H]1O [adenylyl imidodiphosphate],NP40-soluble protein abundance,[1]; concentration: 6mM,0.998 ± 0.017
same,NP40-soluble protein abundance,[1]; concentration: 8mM,1 ± 0.044
same,NP40-soluble protein abundance,[1]; concentration: 10mM,1.01 ± 0.023
same,NP40-soluble protein abundance,[2]; concentration: 1mM,1.02 ± 0.037
same,NP40-soluble protein abundance,[2]; concentration: 2mM,1.06 ± 0.07
same,NP40-soluble protein abundance,[2]; concentration: 4mM,1.04 ± 0.023
same,NP40-soluble protein abundance,[2]; concentration: 6mM,1.03 ± 0.053
same,NP40-soluble protein abundance,[2]; concentration: 8mM,1.03 ± 0.024
same,NP40-soluble protein abundance,[2]; concentration: 10mM,1.05 ± 0.064
same,NP40-soluble protein abundance,[3]; concentration: 1mM,0.983 ± 0.056
same,NP40-soluble protein abundance,[3]; concentration: 2mM,1.01 ± 0.042
same,NP40-soluble protein abundance,[3]; concentration: 4mM,1 ± 0.058
same,NP40-soluble protein abundance,[3]; concentration: 6mM,1.01 ± 0.08
same,NP40-soluble protein abundance,[3]; concentration: 8mM,0.978 ± 0.042
same,NP40-soluble protein abundance,[3]; concentration: 10mM,0.981 ± 0.059
same,NP40-soluble protein abundance,[4]; concentration: 1mM,1.02 ± 0.033
same,NP40-soluble protein abundance,[4]; concentration: 2mM,1.03 ± 0.022
same,NP40-soluble protein abundance,[4]; concentration: 4mM,1.03 ± 0.036
same,NP40-soluble protein abundance,[4]; concentration: 6mM,1.04 ± 0.062
same,NP40-soluble protein abundance,[4]; concentration: 8mM,1.05 ± 0.049
same,NP40-soluble protein abundance,[4]; concentration: 10mM,1.04 ± 0.026
same,NP40-soluble protein abundance,UniProt Q9NUS5; concentration: 1mM,0.96 ± 0.016
same,NP40-soluble protein abundance,UniProt Q9NUS5; concentration: 2mM,0.936 ± 0.051
same,NP40-soluble protein abundance,UniProt Q9NUS5; concentration: 4mM,0.963 ± 0.02
same,NP40-soluble protein abundance,UniProt Q9NUS5; concentration: 6mM,0.948 ± 0.012

# In a second layout: results already given.
smiles	measurement	setting	value
Nc1ncnc2c1ncn2[C@@H]1O[C@H](COP(=O)(O)OP(=O)(O)NP(=O)(O)O)[C@@H](O)[C@H]1O [adenylyl imidodiphosphate]	NP40-soluble protein abundance	[2]; concentration: 2mM	1.06 ± 0.07
same	NP40-soluble protein abundance	[3]; concentration: 1mM	0.983 ± 0.056
